Entries after “also recorded” stand apart in the source; their conditions may differ. At least one compound was matched to its structure with a doubt left.
Experiments:
Toledo cells = assay: Anti-proliferative combination matrix, Cell Titer-Glo, Toledo; conditions: drug combined with Compound 44; Toledo (WT EZH2); 6 days Compound 44 then 5 days combination
SU-DHL-10 cells = assay: Anti-proliferative combination matrix, Cell Titer-Glo, SU-DHL-10; conditions: drug combined with Compound 44
WSU-DLCL2 cells = assay: Anti-proliferative combination matrix, Cell Titer-Glo, WSU-DLCL2; conditions: drug combined with Compound 44

Structure (SMILES) | combination benefit (Toledo cells) | synergy characterization (Chou-Talalay) (SU-DHL-10 cells) | synergy characterization (Chou-Talalay) (WSU-DLCL2 cells)
C[C@@H]1C[C@H]2[C@@H]3CCC4=CC(=O)C=C[C@]4(C)[C@@]3(F)[C@@H](O)C[C@]2(C)[C@@]1(O)C(=O)CO [Dexamethasone] | no combination benefit; also recorded: No enhancement |  | 
Nc1ncn([C@H]2C[C@H](O)[C@@H](CO)O2)c(=O)n1 [Decitabine] | no combination benefit; also recorded: No enhancement | very strong synergism | very strong synergism
